Results: patent US20150218212A1, “FLUORINATED EPOXYKETONE-BASED TETRAPEPTIDE COMPOUNDS AND USES THEREOF AS PROTEASOME INHIBITORS” (FLUORINOV PHARMA INC., priority 2012, published 2015)
At least one structure is not confirmed: it was looked up by name or label, or the drawing left a doubt.

Test system: MM.1S tumor cells
Assay: Inhibition of tumor growth in myeloma MM.1S mouse xenograft model
Type: in vivo, mice
Conditions: MM.1S xenograft
Protocol: The mice were irradiated (200 rads) using a Co60 irradiator source. After 24 hrs, each mouse was inoculated subcutaneously with 5×10^6 MM.1S tumor cells in 0.1 mL PBS for tumor development. Treatments were started when the tumor volume reached 100 mm^3. Each treatment group consisted of 10 mice. The test articles of compounds of Formula I were administrated to the tumor-bearing mice according to a specific predetermined regimen.

With `CC(C)C[C@H](NC(=O)[C@H](COC(F)F)NC(=O)CN1CCOCC1)C(=O)N[C@@H](COC(F)F)C(=O)N[C@@H](CC(C)C)C(=O)[C@@]1(C)CO1` [Example 1, (2S)—N-[(1S)-1-(difluoromethoxymethyl)-2-[[(1S)-3-methyl-1-[(2R)-2-methyloxirane-2-carbonyl]butyl]amino]-2-oxo-ethyl]-2-[[(2S)-3-(difluoromethoxy)-2-[(2-morpholinoacetyl)amino]propanoyl]amino]-4-methyl-pentanamide] the “antitumor activity vs. control” value (4 mg/kg i.v, days 1, 3, 5/wk×28 days) was “statically significant antitumor activity” and the “antitumor activity vs. control” value (8 mg/kg i.v, days 1, 2/wk×4 wks) was “statically significant antitumor activity”.
